Experimental data: PubChem BioAssay AID504784 (Drosophila RNAi Screening Center, 2011)
The screen tested about 17,000 reagents; this is a random part of those that have a named target and a result. 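Each column is one replicate's B-score; the combined score over replicates was not deposited, so single values may mislead.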 Further read-outs or replicates are left out here.

Purpose: 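Genome-wide knock-down for genes giving too much or too little stored lipid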 (primary screen)
System: Drosophila Kc167 embryonic cells
Reagent: long dsRNA against Drosophila genes, about 250 ng dsRNA per well
Duration: 4 days
Conditions: cells fed 400 µM oleic acid bound to BSA
Measurement: 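Microscope images give a droplet-to-nucleus area ratio, taken as log and converted to a screen-wide B-score; higher values mean greater lipid storage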
Scale: droplet/nuclear area B-score: higher = more stored lipid (overstorage)

no.	Target gene	amplicon	droplet/nuclear area B-score, replicate 1
1	CG1092	DRSC12151	0.899
2	CG5180	DRSC15731	-0.214
3	CG15754	DRSC19719	-2.71
4	SWIP	DRSC19540	0.41
5	CG15861	DRSC04274	1.25
6	CG5026	DRSC10470	0.642
7	CG13461	DRSC10008	-1.24
8	meng	DRSC02134	0.677
9	gukh	DRSC14768	-0.0402
10	gukh	DRSC15806	-1.47
11	gukh	DRSC15944	0.0955
12	PolI	DRSC16267	0.257
13	CG6567	DRSC16066	0.105
14	CG4511	DRSC15589	2.23
15	CG2617	DRSC02712	1.58
16	Aldh	DRSC02717	-0.118
17	CG6441	DRSC02957	2.06
18	tgo	DRSC17077	0.0176
19	CG10209	DRSC05980	-0.584
20	Prosalpha6T	DRSC02873	-0.368
21	CG13377	DRSC18622	-2.13
22	Ctl2	DRSC14423	0.728
23	Etl1	DRSC02911	1.43
24	CG15706	DRSC06577	-3.35
25	CG17364	DRSC10269	-0.1
26	CG17364	DRSC10270	-1.44
27	CG17364	DRSC22689	1.36
28	Phlpp	DRSC02065	0.173
29	Phlpp	DRSC22808	-0.753
30	CG34433	DRSC15077	-0.88
31	Ptx1	DRSC16804	-0.236
32	CG17562	DRSC15243	-0.659
33	eIF3i	DRSC03464	4.3
34	Ppm1	DRSC08260	0.689
35	CG7548	DRSC10874	0.248
36	CG10958	DRSC17768	-0.756
37	shi	DRSC20373	-1.75
38	peng	DRSC20583	1.07
39	unc-5	DRSC05545	-0.601
40	unc-5	DRSC07711	-0.705
41	unc-5	DRSC07712	-0.507
42	CG13116	DRSC02214	0.0893
43	CG13116	DRSC21945	0.357
44	RpLP1	DRSC00783	2.99
45	RpLP1	DRSC22145	0.49
46	CG42269	DRSC10670	-0.121
47	CG42269	DRSC10672	-0.206
48	CG8204	DRSC07106	-0.304
49	jdp	DRSC16975	0.972
50	Nnk	DRSC15274	-1.2
51	Listericin	DRSC07334	0.354
52	spas	DRSC15929	4.2
53	His3.3A	DRSC03343	2.97
54	Cad74A	DRSC10636	1.04
55	fd96Ca	DRSC16946	0.456
56	key	DRSC04285	-3.09
57	Nubp1	DRSC02639	-2.63
58	TAF1C-like	DRSC04073	0.666
59	CG13807	DRSC08342	1.17
60	PPYR1	DRSC19612	-0.592
61	Elp6	DRSC16571	2.15
62	IFT43	DRSC02892	-0.142
63	CG3045	DRSC04331	1.57
64	put	DRSC17039	0.976
65	stol	DRSC01956	-0.986
66	CG12861	DRSC06201	-1.69
67	CG12861	DRSC21960	0.304
68	drl	DRSC03523	1.21
69	Vml	DRSC17695	0.274
70	Vml	DRSC18529	0.0151
71	Acsf3	DRSC18146	0.936
72	ImpE3	DRSC16716	-0.281
73	Cals	DRSC17196	-1.24
74	Cals	DRSC21661	0.679
75	CG14780	DRSC18566	1.4
76	CG14795	DRSC18513	-0.626
77	L (retired record)	DRSC05966	-0.925
78	L (retired record)	DRSC05967	2.18
79	Ance-2	DRSC02539	-0.18
80	CG13392	DRSC02262	0.00702
81	Dpit47	DRSC04985	0.314
82	vig	DRSC03630	0.266
83	vig	DRSC03631	0.0018
84	vig	DRSC21672	-1.42
